Results from paper doi:10.1101/2024.01.30.577963.
These are yes or no findings as the source states them, for the method shown. Binding seen in cells or lysates may run through a third protein. A yes stands for co-enrichment or nearness to the bait. Other partners may have been found. For some assays here: Tags and fused reporters may be left off the sequences shown. One block for each molecule: values may come before it.

Amino acid sequences for entries named in this document (tags omitted).
UniProt P53224: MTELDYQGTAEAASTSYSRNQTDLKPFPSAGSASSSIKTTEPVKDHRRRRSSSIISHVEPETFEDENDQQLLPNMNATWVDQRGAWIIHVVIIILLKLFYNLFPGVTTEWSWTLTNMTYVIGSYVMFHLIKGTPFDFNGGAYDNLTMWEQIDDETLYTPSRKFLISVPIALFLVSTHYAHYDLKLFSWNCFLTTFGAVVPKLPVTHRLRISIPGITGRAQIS

Tests used:
Test in all cases: affinity purification with mass spectrometry
[1] = molecular target: T1, ALFA-Lcb1 (S. cerevisiae) (UniProt P25045)
T1 sequence: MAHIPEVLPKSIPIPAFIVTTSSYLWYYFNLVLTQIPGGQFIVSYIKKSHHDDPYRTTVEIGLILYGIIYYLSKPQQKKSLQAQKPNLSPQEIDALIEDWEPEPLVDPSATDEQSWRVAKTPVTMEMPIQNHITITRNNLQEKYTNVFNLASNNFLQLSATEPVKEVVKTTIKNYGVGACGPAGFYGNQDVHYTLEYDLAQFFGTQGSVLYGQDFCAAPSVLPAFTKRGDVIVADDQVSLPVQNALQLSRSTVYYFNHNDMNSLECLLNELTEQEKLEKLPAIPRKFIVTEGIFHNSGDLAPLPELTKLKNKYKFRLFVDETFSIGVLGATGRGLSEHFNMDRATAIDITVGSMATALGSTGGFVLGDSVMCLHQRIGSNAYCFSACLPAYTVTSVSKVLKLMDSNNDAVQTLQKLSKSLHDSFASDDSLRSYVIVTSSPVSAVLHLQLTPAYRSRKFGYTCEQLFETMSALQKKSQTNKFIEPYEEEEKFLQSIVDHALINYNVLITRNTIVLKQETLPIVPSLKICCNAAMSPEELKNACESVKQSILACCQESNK

[2] = molecular target: T2, ALFA-lcb1ΔTM1 (Lcb1 lacking TM1, Y55-S73) (S. cerevisiae) (UniProt P25045)
T2 sequence: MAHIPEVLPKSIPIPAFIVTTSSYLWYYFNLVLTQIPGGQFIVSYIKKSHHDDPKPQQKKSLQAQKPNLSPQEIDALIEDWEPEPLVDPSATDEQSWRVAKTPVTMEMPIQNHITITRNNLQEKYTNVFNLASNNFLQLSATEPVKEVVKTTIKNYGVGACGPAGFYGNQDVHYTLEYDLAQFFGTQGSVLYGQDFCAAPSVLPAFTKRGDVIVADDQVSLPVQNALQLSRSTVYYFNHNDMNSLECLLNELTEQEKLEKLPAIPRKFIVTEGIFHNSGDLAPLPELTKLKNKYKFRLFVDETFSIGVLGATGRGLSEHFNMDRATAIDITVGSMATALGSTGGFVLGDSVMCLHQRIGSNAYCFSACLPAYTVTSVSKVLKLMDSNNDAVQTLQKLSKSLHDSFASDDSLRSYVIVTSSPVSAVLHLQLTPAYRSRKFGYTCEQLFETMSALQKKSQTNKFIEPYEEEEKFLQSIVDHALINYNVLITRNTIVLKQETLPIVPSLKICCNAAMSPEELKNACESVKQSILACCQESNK

[3] = molecular target: T3, Lcb1 with an internal 3xFLAG epitope inserted after P9 (S. cerevisiae) (UniProt P25045)
T3 sequence: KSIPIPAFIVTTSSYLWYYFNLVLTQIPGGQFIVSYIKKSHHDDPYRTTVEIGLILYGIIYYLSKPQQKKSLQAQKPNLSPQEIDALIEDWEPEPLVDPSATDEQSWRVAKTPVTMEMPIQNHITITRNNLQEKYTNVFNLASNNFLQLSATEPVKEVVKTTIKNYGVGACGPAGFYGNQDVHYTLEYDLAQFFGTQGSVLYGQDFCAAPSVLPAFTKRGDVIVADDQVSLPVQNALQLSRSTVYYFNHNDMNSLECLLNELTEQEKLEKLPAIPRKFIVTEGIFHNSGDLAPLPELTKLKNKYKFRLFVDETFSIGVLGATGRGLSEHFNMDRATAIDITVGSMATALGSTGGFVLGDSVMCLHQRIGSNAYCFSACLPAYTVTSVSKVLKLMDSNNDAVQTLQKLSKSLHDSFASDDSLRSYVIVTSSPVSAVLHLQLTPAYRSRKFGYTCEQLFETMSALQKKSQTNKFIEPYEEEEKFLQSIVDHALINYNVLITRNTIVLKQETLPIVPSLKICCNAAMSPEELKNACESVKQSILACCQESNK

[4] = molecular target: T4, ALFA-Lcb1 (S. cerevisiae), P25045; conditions: remark: other sources report otherwise
T4 chain: T1 sequence

binding [1]: binds
B1: Sac1 (endogenous) (enzyme, UniProt P32368 1-623)
chain: MTGPIVYVQNADGIFFKLAEGKGTNDAVIHLANQDQGVRVLGAEEFPVQGEVVKIASLMGFIKLKLNRYAIIANTVEETGRFNGHVFYRVLQHSIVSTKFNSRIDSEEAEYIKLLELHLKNSTFYFSYTYDLTNSLQRNEKVGPAASWKTADERFFWNHYLTEDLRNFAHQDPRIDSFIQPVIYGYAKTVDAVLNATPIVLGLITRRSIFRAGTRYFRRGVDKDGNVGNFNETEQILLAENPESEKIHVFSFLQTRGSVPIYWAEINNLKYKPNLVLGENSLDATKKHFDQQKELYGDNYLVNLVNQKGHELPVKEGYESVVHALNDPKIHYVYFDFHHECRKMQWHRVKLLIDHLEKLGLSNEDFFHKVIDSNGNTVEIVNEQHSVVRTNCMDCLDRTNVVQSVLAQWVLQKEFESADVVATGSTWEDNAPLLTSYQNLWADNADAVSVAYSGTGALKTDFTRTGKRTRLGAFNDFLNSASRYYQNNWTDGPRQDSYDLFLGGFRPHTASIKSPFPDRRPVYIQLIPMIICAALTVLGATIFFPKDRFTSSKNLLYFAGASIVLALSTKFMFKNGIQFVNWPKLVDVGFLVVHQTHDKEQQFKGLKYAQSPKFSKPDPLKRD

binding [3]: binds
B2: Sac1 (PI4P phosphatase) (enzyme, UniProt P32368 1-623)
chain: B1 chain

binding [4]: binds
B4: Tsc3 (endogenous), Q3E790 1-80 (protein)
chain: MTQHKSSMVYIPTTKEAKRRNGKSEGILNTIEEVVEKLYWTYYIHLPFYLMASFDSFFLHVFFLTIFSLSFFGILKYCFL

Continued, molecule first:

Molecule: Orm1 (endogenous, untagged) (from UniProt P53224 1-222)
binding [1]: binds
binding [2]: binds

B3: Orm2 (endogenous, untagged) (protein, UniProt Q06144 1-216)
chain: MIDRTKNESPAFEESPLTPNVSNLKPFPSQSNKISTPVTDHRRRRSSSVISHVEQETFEDENDQQMLPNMNATWVDQRGAWLIHIVVIVLLRLFYSLFGSTPKWTWTLTNMTYIIGFYIMFHLVKGTPFDFNGGAYDNLTMWEQINDETLYTPTRKFLLIVPIVLFLISNQYYRNDMTLFLSNLAVTVLIGVVPKLGITHRLRISIPGITGRAQIS
binding [1]: binds
binding [2]: binds

B5: Lcb2 (endogenous) (enzyme, UniProt P40970 1-561)
chain: MSTPANYTRVPLCEPEELPDDIQKENEYGTLDSPGHLYQVKSRHGKPLPEPVVDTPPYYISLLTYLNYLILIILGHVHDFLGMTFQKNKHLDLLEHDGLAPWFSNFESFYVRRIKMRIDDCFSRPTTGVPGRFIRCIDRISHNINEYFTYSGAVYPCMNLSSYNYLGFAQSKGQCTDAALESVDKYSIQSGGPRAQIGTTDLHIKAEKLVARFIGKEDALVFSMGYGTNANLFNAFLDKKCLVISDELNHTSIRTGVRLSGAAVRTFKHGDMVGLEKLIREQIVLGQPKTNRPWKKILICAEGLFSMEGTLCNLPKLVELKKKYKCYLFIDEAHSIGAMGPTGRGVCEIFGVDPKDVDILMGTFTKSFGAAGGYIAADQWIIDRLRLDLTTVSYSESMPAPVLAQTISSLQTISGEICPGQGTERLQRIAFNSRYLRLALQRLGFIVYGVADSPVIPLLLYCPSKMPAFSRMMLQRRIAVVVVAYPATPLIESRVRFCMSASLTKEDIDYLLRHVSEVGDKLNLKSNSGKSSYDGKRQRWDIEEVIRRTPEDCKDDKYFVN
binding [1]: binds
